This is one part of the list. The calls rarely recur for the same compound in another form.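 Kinases, fused to nanoluciferase, were expressed in K562 cells; luminescence was measured every 4 h from 2 to 18 h as percent of control (DMSO = 100%, positive control = 0%). A time point is decreased if signal falls significantly (2 sigma). Hits were called by the authors by a rule that is not shown; the count of time points alone does not decide it.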
Legend:
Test in all cases: number of time points (of 5) at which kinase-Nluc abundance scored as decreased, DMSO-normalised (count); higher = more persistent destabilization
Settings in all cases: K562; 2-18 h
EGFR_L861Q = EGFR_L861Q (UniProt P00533)
EGFR_T790M = EGFR_T790M (UniProt P00533)
EPHA2 = EPHA2 (UniProt P29317)
ERBB3 = ERBB3 (UniProt P21860)
[1] = biological target: ERBB4_R711C (clone: ERBB4_mut) (UniProt Q15303)
ERN1 = ERN1 (UniProt O75460)
FGFR1 = FGFR1 (UniProt P11362)
FGFR2 = FGFR2 (UniProt P21802)
FGFR3 = FGFR3 (UniProt P22607)
FGR = FGR (UniProt P09769)
FLT3 = FLT3 (UniProt P36888)
FYN = FYN (UniProt P06241)
GSK3A = GSK3A (UniProt P49840)
HER2 = HER2 (UniProt P04626)
INSRR = INSRR (UniProt P14616)
IRAK3 = IRAK3 (UniProt Q9Y616)
JAK1 = JAK1 (UniProt P23458)
LCK = LCK (UniProt P06239)
LIMK1 = LIMK1 (UniProt P53667)
LIMK2 = LIMK2 (UniProt P53671)

By UniProt entry, the sequences of proteins in these tests, tags left out. Where a name states a change or a piece, a line headed by the entry shows the natural chain unless it says otherwise.
UniProt P29317, whole entry: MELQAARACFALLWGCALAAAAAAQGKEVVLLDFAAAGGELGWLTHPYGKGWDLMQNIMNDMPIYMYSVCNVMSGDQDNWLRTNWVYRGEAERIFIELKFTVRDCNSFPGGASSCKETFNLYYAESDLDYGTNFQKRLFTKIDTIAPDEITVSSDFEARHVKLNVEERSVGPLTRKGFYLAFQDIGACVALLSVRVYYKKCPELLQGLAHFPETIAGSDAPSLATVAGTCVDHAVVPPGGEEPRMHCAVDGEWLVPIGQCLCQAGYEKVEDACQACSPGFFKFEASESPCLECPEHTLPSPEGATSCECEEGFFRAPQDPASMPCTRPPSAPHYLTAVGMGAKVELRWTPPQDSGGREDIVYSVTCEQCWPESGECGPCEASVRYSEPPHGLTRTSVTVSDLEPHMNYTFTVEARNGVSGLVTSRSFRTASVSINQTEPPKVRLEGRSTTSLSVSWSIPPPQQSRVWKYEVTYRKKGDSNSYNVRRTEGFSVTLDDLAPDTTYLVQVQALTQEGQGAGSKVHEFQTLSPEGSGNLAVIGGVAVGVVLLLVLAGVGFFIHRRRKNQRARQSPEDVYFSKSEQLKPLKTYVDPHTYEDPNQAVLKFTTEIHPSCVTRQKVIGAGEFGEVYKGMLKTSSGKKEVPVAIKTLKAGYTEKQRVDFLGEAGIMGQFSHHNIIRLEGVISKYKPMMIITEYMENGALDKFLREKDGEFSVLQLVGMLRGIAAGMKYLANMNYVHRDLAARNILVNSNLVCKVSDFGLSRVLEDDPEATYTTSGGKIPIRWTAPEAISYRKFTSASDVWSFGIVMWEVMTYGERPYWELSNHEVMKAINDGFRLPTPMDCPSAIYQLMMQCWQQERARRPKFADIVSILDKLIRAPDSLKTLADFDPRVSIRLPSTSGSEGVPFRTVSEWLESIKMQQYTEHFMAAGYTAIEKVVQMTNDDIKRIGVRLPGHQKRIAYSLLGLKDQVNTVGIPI
UniProt O75460: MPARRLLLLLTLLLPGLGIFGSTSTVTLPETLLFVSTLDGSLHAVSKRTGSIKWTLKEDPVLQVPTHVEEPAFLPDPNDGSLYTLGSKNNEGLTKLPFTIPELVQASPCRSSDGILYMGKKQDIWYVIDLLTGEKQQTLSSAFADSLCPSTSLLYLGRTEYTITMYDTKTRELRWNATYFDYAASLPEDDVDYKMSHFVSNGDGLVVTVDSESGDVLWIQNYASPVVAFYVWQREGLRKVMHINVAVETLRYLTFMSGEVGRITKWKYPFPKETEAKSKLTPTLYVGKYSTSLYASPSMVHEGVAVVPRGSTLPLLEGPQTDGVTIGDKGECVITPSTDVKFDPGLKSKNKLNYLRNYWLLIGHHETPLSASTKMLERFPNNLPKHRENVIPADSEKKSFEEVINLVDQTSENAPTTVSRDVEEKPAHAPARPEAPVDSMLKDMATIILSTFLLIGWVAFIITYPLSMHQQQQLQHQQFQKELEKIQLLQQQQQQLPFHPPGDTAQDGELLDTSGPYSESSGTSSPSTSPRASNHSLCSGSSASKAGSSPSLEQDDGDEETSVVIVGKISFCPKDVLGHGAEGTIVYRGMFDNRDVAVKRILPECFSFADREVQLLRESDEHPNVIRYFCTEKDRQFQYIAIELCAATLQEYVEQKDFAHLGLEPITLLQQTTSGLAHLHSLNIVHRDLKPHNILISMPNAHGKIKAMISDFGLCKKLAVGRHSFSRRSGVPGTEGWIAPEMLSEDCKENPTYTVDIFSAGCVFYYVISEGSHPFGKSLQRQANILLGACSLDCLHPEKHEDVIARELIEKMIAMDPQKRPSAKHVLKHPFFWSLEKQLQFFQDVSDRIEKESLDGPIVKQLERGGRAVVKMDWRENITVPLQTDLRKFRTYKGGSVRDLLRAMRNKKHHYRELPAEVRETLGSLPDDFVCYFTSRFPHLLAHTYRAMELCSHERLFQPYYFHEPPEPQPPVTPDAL
UniProt P11362, whole entry, looked up: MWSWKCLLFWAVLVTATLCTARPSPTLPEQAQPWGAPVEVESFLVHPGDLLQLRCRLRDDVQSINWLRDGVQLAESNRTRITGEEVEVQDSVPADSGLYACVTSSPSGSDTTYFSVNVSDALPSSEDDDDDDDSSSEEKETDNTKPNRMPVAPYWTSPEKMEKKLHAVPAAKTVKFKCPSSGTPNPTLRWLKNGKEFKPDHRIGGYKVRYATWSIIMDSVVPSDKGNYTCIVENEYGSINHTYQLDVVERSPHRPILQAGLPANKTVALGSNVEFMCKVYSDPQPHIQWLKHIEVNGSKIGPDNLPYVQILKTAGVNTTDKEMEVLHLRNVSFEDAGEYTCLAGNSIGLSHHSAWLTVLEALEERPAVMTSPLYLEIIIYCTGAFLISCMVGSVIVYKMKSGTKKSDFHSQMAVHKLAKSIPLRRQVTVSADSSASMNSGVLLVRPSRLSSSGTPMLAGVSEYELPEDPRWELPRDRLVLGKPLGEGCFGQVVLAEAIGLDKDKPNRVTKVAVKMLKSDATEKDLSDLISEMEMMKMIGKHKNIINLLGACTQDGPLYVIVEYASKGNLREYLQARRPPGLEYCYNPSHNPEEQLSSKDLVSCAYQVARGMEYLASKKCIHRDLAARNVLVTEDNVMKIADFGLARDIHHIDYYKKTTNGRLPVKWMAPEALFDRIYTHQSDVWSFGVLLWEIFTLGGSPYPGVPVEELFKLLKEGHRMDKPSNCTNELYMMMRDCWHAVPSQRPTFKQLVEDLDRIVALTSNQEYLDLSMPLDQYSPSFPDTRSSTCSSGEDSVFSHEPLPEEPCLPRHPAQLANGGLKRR
UniProt P21802, whole entry, looked up: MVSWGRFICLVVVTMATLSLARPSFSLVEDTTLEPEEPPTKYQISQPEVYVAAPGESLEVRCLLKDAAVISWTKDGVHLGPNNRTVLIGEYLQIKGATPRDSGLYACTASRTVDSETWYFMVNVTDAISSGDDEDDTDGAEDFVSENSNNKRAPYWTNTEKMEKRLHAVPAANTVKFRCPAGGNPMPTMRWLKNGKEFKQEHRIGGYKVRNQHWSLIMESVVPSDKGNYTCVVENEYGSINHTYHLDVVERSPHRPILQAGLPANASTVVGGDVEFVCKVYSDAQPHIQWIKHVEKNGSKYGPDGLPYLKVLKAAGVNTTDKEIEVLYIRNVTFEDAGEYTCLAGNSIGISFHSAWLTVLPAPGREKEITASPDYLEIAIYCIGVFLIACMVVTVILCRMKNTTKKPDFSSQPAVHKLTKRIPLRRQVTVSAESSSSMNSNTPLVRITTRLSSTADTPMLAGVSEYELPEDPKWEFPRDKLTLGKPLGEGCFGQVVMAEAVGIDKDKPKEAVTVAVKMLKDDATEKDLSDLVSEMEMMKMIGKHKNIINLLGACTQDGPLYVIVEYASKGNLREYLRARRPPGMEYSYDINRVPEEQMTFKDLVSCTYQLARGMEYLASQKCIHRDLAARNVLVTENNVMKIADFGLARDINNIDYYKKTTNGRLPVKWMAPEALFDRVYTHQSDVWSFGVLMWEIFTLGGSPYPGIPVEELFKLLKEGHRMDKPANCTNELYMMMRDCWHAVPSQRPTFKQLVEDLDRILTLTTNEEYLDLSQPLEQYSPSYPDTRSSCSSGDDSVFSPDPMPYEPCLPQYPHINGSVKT
UniProt P06241, whole entry, looked up: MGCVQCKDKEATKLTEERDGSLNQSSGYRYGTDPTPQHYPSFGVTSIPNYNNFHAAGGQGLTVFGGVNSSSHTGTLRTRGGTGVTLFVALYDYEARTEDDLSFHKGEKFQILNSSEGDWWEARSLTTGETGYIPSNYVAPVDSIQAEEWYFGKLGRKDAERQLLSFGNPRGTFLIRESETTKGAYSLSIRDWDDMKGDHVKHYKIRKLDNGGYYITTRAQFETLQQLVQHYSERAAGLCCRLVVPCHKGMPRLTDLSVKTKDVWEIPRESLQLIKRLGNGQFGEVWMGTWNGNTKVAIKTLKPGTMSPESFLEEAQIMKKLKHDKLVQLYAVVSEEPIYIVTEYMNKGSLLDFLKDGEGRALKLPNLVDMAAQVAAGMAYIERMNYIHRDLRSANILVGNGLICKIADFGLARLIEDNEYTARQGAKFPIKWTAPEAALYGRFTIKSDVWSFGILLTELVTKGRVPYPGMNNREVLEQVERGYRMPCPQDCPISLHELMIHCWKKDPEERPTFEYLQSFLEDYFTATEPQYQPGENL
UniProt P49840: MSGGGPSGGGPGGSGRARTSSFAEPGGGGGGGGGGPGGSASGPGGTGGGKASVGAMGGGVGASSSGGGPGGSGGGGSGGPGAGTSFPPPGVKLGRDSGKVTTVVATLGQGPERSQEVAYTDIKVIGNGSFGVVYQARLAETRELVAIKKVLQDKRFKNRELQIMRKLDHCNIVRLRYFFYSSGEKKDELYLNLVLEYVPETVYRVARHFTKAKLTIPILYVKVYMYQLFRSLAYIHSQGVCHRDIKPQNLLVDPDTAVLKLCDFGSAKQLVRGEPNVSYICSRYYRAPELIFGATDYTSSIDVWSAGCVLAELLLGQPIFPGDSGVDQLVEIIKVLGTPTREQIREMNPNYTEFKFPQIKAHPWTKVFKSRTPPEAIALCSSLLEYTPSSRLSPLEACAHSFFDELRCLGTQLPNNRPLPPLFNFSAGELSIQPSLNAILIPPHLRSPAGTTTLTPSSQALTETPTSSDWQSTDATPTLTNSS
UniProt P14616: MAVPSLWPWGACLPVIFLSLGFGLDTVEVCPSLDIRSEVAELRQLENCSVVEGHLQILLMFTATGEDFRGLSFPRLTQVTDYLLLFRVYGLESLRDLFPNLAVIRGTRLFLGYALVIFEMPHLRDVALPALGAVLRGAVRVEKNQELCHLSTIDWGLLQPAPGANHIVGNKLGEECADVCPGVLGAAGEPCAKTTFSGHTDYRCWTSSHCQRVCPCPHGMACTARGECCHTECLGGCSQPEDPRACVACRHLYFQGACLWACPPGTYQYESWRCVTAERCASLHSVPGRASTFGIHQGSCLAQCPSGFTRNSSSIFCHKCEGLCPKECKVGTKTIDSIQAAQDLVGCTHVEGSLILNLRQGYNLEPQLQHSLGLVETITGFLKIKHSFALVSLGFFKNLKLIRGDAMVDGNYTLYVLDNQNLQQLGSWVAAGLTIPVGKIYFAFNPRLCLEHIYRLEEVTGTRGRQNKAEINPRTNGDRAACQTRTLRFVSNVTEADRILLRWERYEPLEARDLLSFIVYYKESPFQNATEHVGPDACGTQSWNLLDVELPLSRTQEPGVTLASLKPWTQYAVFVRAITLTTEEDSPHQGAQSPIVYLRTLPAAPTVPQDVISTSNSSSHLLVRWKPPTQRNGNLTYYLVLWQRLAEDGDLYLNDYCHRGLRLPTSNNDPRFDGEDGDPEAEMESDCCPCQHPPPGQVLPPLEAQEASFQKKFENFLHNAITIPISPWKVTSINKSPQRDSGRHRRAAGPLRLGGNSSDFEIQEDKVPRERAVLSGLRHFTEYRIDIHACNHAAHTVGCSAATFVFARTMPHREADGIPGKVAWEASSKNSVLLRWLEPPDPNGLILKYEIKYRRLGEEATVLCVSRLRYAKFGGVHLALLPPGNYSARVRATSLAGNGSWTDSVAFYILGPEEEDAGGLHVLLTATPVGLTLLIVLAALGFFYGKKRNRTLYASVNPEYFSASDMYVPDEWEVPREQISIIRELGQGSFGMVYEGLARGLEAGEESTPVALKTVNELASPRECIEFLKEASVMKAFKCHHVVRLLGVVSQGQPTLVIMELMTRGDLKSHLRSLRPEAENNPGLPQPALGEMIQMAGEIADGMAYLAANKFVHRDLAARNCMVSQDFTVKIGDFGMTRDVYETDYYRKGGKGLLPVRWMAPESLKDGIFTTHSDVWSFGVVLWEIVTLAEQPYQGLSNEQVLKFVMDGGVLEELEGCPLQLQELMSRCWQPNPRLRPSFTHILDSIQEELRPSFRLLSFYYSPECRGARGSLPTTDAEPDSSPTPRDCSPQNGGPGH
UniProt P53671: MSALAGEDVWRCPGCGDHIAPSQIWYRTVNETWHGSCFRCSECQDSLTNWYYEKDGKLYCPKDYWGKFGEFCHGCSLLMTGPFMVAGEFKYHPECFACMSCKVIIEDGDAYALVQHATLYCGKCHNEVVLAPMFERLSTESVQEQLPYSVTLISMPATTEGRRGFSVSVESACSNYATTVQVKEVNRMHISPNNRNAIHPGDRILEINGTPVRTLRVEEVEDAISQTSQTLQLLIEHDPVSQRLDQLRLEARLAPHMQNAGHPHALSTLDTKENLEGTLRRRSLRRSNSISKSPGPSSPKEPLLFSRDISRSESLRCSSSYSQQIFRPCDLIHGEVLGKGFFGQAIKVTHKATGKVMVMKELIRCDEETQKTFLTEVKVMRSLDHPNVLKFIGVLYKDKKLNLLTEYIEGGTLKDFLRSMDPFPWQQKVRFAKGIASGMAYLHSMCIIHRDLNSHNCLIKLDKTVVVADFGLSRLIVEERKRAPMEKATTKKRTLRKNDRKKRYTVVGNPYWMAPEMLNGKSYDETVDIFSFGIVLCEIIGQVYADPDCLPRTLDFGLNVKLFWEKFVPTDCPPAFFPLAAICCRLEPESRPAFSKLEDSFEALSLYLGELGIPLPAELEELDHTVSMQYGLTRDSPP

Measured: number of time points

NC(=O)c1ccc(N(C(N)=O)c2c(F)cccc2F)nc1-c1ccc(F)cc1F (10 µM)
0: EGFR_L861Q | EGFR_T790M | EPHA2 | ERBB3 | [1] | ERN1 | FGFR1 | FGFR2 | FGFR3 | FGR | FLT3 | FYN | GSK3A | HER2 | INSRR | IRAK3 | JAK1 | LCK | LIMK1 | LIMK2

N#Cc1ccc(-c2cnc3[nH]cc(NC(=O)c4cccnc4)c3c2)cc1 (10 µM)
0: EGFR_L861Q | EGFR_T790M | EPHA2 | ERBB3 | [1] | ERN1 | FGFR1 | FGFR2 | FGFR3 | FGR | FLT3 | FYN | GSK3A | HER2 | INSRR | IRAK3 | JAK1 | LCK | LIMK1 | LIMK2

CC(C)Oc1ccc(F)c(-c2cnc(N)c(C(=O)Nc3cnccc3N3CCC[C@@H](C(=O)O)C3)n2)c1 (2 µM)
2: EGFR_L861Q | JAK1
4: [1] | FLT3
0: EGFR_T790M | EPHA2 | ERBB3 | ERN1 | FGFR1 | FGFR2 | FGFR3 | FGR | FYN | GSK3A | HER2 | INSRR | IRAK3 | LCK | LIMK1 | LIMK2

CCn1c(-c2nonc2N)nc2c(C#CC(C)(C)O)ncc(OC[C@H]3CCCNC3)c21 (10 µM)
0: EGFR_L861Q | EGFR_T790M | EPHA2 | ERBB3 | [1] | ERN1 | FGFR1 | FGFR2 | FGFR3 | FGR | FLT3 | FYN | GSK3A | HER2 | INSRR | IRAK3 | JAK1 | LCK | LIMK1 | LIMK2

Cn1c(CNc2cccc(C(=O)NCc3ccccc3C(F)(F)F)c2)nnc1-c1ccncc1 (10 µM)
0: EGFR_L861Q | EGFR_T790M | EPHA2 | ERBB3 | [1] | ERN1 | FGFR1 | FGFR2 | FGFR3 | FGR | FLT3 | FYN | GSK3A | HER2 | INSRR | IRAK3 | JAK1 | LCK | LIMK1 | LIMK2

CO[C@H]1C[C@@H]2CC[C@@H](C)[C@@](O)(O2)C(=O)C(=O)N2CCCC[C@H]2C(=O)O[C@H]([C@H](C)C[C@@H]2CC[C@@H](OC(=O)C(C)(CO)CO)[C@H](OC)C2)CC(=O)[C@H](C)/C=C(\C)[C@@H](O)[C@@H](OC)C(=O)[C@H](C)C[C@H](C)/C=C/C=C/C=C/1C [Temsirolimus] (2.5 µM)
0: EGFR_L861Q | EGFR_T790M | EPHA2 | ERBB3 | [1] | ERN1 | FGFR1 | FGFR2 | FGFR3 | FGR | FLT3 | FYN | GSK3A | HER2 | INSRR | IRAK3 | JAK1 | LCK | LIMK1 | LIMK2

Cc1cc(-n2c(=O)ccc3c[nH]c4nccc-4c32)ccc1F (10 µM)
0: EGFR_L861Q | EGFR_T790M | EPHA2 | ERBB3 | [1] | ERN1 | FGFR1 | FGFR2 | FGFR3 | FGR | FLT3 | GSK3A | HER2 | INSRR | IRAK3 | JAK1 | LCK | LIMK1 | LIMK2
3: FYN

Cc1cccc(-c2[nH]ncc2-c2ccnc3ccccc23)n1 (10 µM)
0: EGFR_L861Q | EGFR_T790M | EPHA2 | ERBB3 | [1] | ERN1 | FGFR1 | FGFR2 | FGFR3 | FGR | FLT3 | FYN | GSK3A | HER2 | INSRR | IRAK3 | JAK1 | LCK | LIMK1 | LIMK2

COC(=O)Nc1ccc(-c2nc(N3CCOCC3)c3cnn(C4CCN(C(=O)OC)CC4)c3n2)cc1 (10 µM)
0: EGFR_L861Q | EGFR_T790M | EPHA2 | ERBB3 | [1] | ERN1 | FGFR1 | FGFR2 | FGFR3 | FGR | FLT3 | FYN | GSK3A | HER2 | INSRR | IRAK3 | JAK1 | LCK | LIMK1 | LIMK2

CC(C)n1c(=O)n(C)c2cnc3cc(F)c(-c4ccc(OCCCN5CCCCC5)nc4)cc3c21 (10 µM)
0: EGFR_L861Q | EGFR_T790M | EPHA2 | ERBB3 | [1] | ERN1 | FGFR1 | FGFR2 | FGFR3 | FGR | FLT3 | FYN | GSK3A | HER2 | INSRR | IRAK3 | JAK1 | LCK | LIMK1 | LIMK2

COc1cc2ncnc(Nc3ccc(O)c(Br)c3)c2cc1OC (10 µM)
0: EGFR_L861Q | EGFR_T790M | EPHA2 | [1] | ERN1 | FGFR1 | FGFR2 | FGFR3 | FGR | FLT3 | FYN | GSK3A | HER2 | INSRR | IRAK3 | JAK1 | LCK | LIMK1 | LIMK2
1: ERBB3

Brc1ccc(CSc2nc3ccccc3o2)cc1 [BMP signaling agonist sb4] (10 µM)
0: EGFR_L861Q | EGFR_T790M | EPHA2 | ERBB3 | [1] | ERN1 | FGFR1 | FGFR2 | FGFR3 | FGR | FLT3 | FYN | GSK3A | HER2 | INSRR | IRAK3 | JAK1 | LCK | LIMK1 | LIMK2

CCN1CCN(Cc2cnc(Nc3cc(-c4cc(F)c5nc(C)n(C(C)C)c5c4)c(F)cn3)nc2)CC1 (10 µM)
3: JAK1
1: HER2
2: [1]
0: EGFR_L861Q | EGFR_T790M | EPHA2 | ERBB3 | ERN1 | FGFR1 | FGFR2 | FGFR3 | FGR | FLT3 | FYN | GSK3A | INSRR | IRAK3 | LCK | LIMK1 | LIMK2

NS(=O)(=O)c1ccc(Nc2nc(-c3cccc(-c4ccccc4)c3)c3[nH]cnc3n2)cc1 (10 µM)
0: EGFR_L861Q | EGFR_T790M | EPHA2 | ERBB3 | [1] | ERN1 | FGFR1 | FGFR2 | FGFR3 | FGR | FLT3 | FYN | GSK3A | HER2 | INSRR | IRAK3 | JAK1 | LCK | LIMK1 | LIMK2

COc1cc(F)ccc1-c1ncnc(Nc2cccc(C[S@](C)(=N)=O)c2)n1 [Atuveciclib] (2.5 µM)
1: FYN
0: EPHA2 | FGFR1 | FGFR3 | FGR | HER2 | INSRR | LCK | LIMK1 | LIMK2
3: EGFR_L861Q | ERBB3 | [1] | FLT3
2: EGFR_T790M | ERN1 | FGFR2 | GSK3A | IRAK3 | JAK1

COC(=O)Nc1ccc(-c2nc(N3CCOCC3)c3cnn(C4CCN(Cc5cccnc5)CC4)c3n2)cc1 (10 µM)
0: EGFR_L861Q | EGFR_T790M | EPHA2 | ERBB3 | [1] | ERN1 | FGFR1 | FGFR2 | FGFR3 | FGR | FLT3 | FYN | GSK3A | HER2 | INSRR | IRAK3 | JAK1 | LCK | LIMK1 | LIMK2

Nc1ncc(-c2ccnc(Nc3ccncc3)n2)c(CC2CC2)n1 (10 µM)
3: JAK1
2: EGFR_L861Q | FYN
1: FGFR2
0: EGFR_T790M | EPHA2 | ERBB3 | [1] | ERN1 | FGFR1 | FGFR3 | FGR | FLT3 | GSK3A | HER2 | INSRR | IRAK3 | LCK | LIMK1 | LIMK2

COc1cc(-c2cc(-c3ccc(N4CCNCC4)cc3)cnc2C)cc(OC)c1OC (10 µM)
0: EGFR_L861Q | EGFR_T790M | EPHA2 | ERBB3 | [1] | ERN1 | FGFR1 | FGFR2 | FGFR3 | FGR | FLT3 | FYN | GSK3A | HER2 | INSRR | IRAK3 | JAK1 | LCK | LIMK1 | LIMK2

C#Cc1cccc(Nc2ncnc3cc(OC)c(NC(=O)N4C[C@H]5CCN(C)[C@H]5C4)cc23)c1 [Theliatinib] (10 µM)
0: EGFR_L861Q | EGFR_T790M | EPHA2 | ERBB3 | [1] | ERN1 | FGFR1 | FGFR2 | FGFR3 | FGR | FLT3 | FYN | GSK3A | HER2 | INSRR | IRAK3 | JAK1 | LCK | LIMK1 | LIMK2

C=C1CCC[C@]2(C)C=C3OC(=O)C(C)=C3C[C@@H]12 [Atractylenolide I] (10 µM)
0: EGFR_L861Q | EGFR_T790M | EPHA2 | ERBB3 | [1] | ERN1 | FGFR1 | FGFR2 | FGFR3 | FGR | FLT3 | FYN | GSK3A | HER2 | INSRR | IRAK3 | JAK1 | LCK | LIMK1 | LIMK2

N#C/C(=C\c1ccc(O)c(O)c1)C(=O)O [Tyrphostin AG30] (10 µM)
0: EGFR_L861Q | EGFR_T790M | EPHA2 | ERBB3 | [1] | ERN1 | FGFR1 | FGFR2 | FGFR3 | FGR | FLT3 | FYN | GSK3A | HER2 | INSRR | IRAK3 | JAK1 | LCK | LIMK1 | LIMK2

CNC(=O)c1cc2c(Oc3ccc(NC(=O)C4(C(=O)Nc5ccc(F)cc5)CC4)cc3)ccnc2cc1OC (2.5 µM)
2: EGFR_L861Q | [1] | ERN1 | FGFR1 | IRAK3 | JAK1
1: EGFR_T790M | FGFR3 | FLT3 | LIMK2
3: ERBB3 | FGFR2 | FYN | INSRR | LIMK1
0: EPHA2 | FGR | GSK3A | HER2 | LCK

CC(C)(C)Cc1[nH]nc2c1[C@@](C)(c1ccccc1)C1=C(CC(C)(C)CC1=O)N2 (10 µM)
0: EGFR_L861Q | EGFR_T790M | EPHA2 | ERBB3 | [1] | ERN1 | FGFR1 | FGFR2 | FGFR3 | FGR | FLT3 | FYN | GSK3A | HER2 | INSRR | IRAK3 | JAK1 | LCK | LIMK1 | LIMK2

As a short view, two of the compounds above:
C#Cc1cccc(Nc2ncnc3cc(OC)c(NC(=O)N4C[C@H]5CCN(C)[C@H]5C4)cc23)c1 [Theliatinib] (10 µM)
0: EGFR_L861Q | EGFR_T790M | EPHA2 | ERBB3 | [1] | ERN1 | FGFR1 | FGFR2 | FGFR3 | FGR | FLT3 | FYN | GSK3A | HER2 | INSRR | IRAK3 | JAK1 | LCK | LIMK1 | LIMK2

C=C1CCC[C@]2(C)C=C3OC(=O)C(C)=C3C[C@@H]12 [Atractylenolide I] (10 µM)
0: EGFR_L861Q | EGFR_T790M | EPHA2 | ERBB3 | [1] | ERN1 | FGFR1 | FGFR2 | FGFR3 | FGR | FLT3 | FYN | GSK3A | HER2 | INSRR | IRAK3 | JAK1 | LCK | LIMK1 | LIMK2

More structures follow.

CCC(=O)Nc1cccc(Oc2nc(Nc3ccc(N4CCN(C)CC4)cc3OC)ncc2Cl)c1 (10 µM)
1: INSRR
0: EGFR_L861Q | EGFR_T790M | EPHA2 | ERBB3 | [1] | ERN1 | FGFR1 | FGFR2 | FGFR3 | FGR | FLT3 | FYN | GSK3A | HER2 | IRAK3 | JAK1 | LCK | LIMK1 | LIMK2

From the supplement of paper PMC12823440, “Inhibitors supercharge kinase turnover through native proteolytic circuits” (Nature, 2025)
